Source: article PMC10831072
No constants are given. Whether binding was seen depends on the method and setting. In cells and extracts the contact can be indirect. Some entries that bind do so weakly or less than the wild type.

Protein sequences, listed by entry. Tags and fused reporters are not part of them.
UniProt Q5DTM8: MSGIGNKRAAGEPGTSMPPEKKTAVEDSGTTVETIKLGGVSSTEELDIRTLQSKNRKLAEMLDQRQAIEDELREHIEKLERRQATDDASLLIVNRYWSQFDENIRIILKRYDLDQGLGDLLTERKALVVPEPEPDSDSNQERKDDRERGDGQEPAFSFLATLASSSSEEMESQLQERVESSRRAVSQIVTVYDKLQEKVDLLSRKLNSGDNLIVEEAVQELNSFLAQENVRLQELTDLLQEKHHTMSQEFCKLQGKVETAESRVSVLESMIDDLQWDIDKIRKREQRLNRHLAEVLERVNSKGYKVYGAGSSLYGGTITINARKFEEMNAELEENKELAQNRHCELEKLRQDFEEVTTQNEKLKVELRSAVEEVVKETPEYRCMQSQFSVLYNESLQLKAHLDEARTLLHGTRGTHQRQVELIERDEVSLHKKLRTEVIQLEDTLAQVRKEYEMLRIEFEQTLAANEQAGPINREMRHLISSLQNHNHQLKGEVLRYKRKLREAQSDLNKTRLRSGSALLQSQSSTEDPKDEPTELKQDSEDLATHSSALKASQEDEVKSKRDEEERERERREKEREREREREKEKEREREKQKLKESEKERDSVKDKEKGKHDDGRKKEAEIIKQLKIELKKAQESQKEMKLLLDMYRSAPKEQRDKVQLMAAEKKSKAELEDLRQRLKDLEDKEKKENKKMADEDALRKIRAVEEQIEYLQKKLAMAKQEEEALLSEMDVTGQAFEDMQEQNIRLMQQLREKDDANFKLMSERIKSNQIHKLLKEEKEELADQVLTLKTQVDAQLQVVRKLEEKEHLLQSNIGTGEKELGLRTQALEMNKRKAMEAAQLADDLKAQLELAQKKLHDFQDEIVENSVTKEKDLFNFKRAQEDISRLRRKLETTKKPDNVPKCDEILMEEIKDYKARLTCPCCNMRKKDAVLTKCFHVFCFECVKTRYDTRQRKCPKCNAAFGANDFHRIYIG

Biological target: T1, guanine and adenine-binding protein alpha (GABPα) (mouse (endogenous in BAT)) (UniProt Q00422)
T1 sequence: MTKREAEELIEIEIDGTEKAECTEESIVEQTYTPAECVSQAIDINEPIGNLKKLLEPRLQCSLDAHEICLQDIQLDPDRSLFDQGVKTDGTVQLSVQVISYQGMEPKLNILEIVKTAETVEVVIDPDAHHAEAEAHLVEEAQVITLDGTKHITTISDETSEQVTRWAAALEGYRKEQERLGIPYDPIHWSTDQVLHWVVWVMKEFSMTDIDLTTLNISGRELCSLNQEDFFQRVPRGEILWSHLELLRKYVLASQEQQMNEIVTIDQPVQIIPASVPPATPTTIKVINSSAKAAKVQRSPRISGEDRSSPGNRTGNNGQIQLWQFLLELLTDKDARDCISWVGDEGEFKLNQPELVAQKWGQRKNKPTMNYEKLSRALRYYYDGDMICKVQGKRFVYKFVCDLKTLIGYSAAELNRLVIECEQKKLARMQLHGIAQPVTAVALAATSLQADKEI
Test: co-IP; endogenous co-immunoprecipitation using GABPα antibody in BAT; RIPA lysate (150 mM NaCl, 50 mM Tris-HCl pH 7.4, 1% NP-40, 0.25% sodium deoxycholate, 1 mM EDTA, MG132), 1 mg lysate, antibody overnight at 4 °C, Protein A-Sepharose, western blot

- binding: binds
Substance: E3 ubiquitin ligase ring finger protein 20 (RNF20) (from UniProt Q5DTM8 1-973) (enzyme)
